Reference: publication PMC5630627
Results are given in words; binding and its absence hold for the method and conditions named. Binding seen in cells or lysates may run through a third protein. Some binding calls cover weakened binding; strength is not graded here.

Chains of the proteins cited; added tags and fusions are not shown.
UniProt Q14643: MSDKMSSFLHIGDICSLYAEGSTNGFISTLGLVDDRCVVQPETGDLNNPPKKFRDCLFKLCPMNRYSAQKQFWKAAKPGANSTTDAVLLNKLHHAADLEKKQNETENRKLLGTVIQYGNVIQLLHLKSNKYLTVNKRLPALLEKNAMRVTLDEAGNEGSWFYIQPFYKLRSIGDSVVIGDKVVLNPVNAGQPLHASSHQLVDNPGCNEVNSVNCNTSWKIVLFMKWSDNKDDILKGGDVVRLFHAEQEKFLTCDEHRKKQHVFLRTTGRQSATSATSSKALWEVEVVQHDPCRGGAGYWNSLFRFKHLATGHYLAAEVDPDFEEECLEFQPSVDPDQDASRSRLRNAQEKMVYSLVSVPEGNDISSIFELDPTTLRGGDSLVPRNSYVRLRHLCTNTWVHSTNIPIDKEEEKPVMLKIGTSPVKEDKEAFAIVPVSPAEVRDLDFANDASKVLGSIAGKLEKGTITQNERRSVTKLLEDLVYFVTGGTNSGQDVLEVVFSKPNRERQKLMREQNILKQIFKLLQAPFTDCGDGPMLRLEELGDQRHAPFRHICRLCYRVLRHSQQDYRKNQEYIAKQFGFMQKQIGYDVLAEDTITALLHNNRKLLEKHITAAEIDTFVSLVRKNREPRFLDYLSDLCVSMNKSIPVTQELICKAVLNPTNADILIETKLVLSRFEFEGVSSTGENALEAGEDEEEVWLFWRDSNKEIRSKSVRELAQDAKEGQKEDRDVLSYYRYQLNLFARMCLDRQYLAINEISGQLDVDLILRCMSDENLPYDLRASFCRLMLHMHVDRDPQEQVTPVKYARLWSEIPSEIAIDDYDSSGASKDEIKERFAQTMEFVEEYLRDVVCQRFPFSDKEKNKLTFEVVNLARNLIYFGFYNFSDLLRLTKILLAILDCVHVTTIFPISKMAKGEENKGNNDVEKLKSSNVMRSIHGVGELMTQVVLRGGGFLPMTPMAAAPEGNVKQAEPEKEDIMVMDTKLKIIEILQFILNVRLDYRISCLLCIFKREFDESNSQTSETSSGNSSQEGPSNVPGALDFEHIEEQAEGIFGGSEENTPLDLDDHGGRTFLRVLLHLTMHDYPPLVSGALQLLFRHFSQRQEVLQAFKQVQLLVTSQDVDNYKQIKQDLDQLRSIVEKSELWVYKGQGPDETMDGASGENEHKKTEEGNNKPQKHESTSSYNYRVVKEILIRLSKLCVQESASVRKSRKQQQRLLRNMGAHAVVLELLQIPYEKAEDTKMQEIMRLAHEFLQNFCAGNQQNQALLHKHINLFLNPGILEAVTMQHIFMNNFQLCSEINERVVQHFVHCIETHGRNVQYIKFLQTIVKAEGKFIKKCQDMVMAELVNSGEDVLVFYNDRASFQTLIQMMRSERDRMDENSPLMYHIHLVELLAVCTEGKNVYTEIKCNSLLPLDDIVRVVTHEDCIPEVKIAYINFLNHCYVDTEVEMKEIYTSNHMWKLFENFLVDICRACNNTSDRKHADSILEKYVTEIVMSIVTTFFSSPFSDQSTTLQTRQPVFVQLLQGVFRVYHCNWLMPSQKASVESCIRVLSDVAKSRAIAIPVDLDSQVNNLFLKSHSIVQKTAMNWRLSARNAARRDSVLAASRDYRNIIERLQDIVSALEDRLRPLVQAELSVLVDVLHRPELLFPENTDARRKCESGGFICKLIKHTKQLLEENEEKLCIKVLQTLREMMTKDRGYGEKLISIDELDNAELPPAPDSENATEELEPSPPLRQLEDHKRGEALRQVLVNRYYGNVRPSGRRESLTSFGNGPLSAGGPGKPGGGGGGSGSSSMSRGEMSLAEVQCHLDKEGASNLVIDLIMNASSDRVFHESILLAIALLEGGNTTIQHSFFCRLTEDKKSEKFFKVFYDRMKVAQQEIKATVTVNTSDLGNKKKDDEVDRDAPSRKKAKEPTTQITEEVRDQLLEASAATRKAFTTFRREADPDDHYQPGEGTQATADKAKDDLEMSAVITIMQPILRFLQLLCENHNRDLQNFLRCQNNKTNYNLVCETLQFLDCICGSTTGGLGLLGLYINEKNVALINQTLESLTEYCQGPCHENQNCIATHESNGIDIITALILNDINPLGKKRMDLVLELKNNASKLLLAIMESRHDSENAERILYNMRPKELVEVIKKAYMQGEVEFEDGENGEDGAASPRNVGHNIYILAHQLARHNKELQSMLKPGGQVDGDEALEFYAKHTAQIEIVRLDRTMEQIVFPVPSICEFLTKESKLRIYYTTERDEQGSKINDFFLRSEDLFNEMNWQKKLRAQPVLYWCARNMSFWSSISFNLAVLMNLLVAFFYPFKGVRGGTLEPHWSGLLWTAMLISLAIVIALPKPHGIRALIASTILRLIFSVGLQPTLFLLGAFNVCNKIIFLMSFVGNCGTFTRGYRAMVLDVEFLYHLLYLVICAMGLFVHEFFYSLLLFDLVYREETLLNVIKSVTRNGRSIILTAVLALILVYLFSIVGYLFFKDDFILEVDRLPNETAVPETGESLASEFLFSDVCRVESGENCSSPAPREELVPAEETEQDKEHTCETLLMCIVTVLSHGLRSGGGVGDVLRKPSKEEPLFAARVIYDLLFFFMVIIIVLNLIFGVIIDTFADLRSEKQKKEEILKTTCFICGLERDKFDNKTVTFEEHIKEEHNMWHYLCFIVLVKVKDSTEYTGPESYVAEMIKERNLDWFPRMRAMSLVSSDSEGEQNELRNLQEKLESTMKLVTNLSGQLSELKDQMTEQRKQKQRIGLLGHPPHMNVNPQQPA

Molecular target: IP3R-1 (inositol 1,4,5-trisphosphate receptor, endogenous) (human (endogenous in HAECs)) (UniProt Q14643)
Assay: co-IP; HAECs infected with 100 MOI Ad-Bik or Ad-Bik^L61G, 24 h; lysates immunoprecipitated with anti-Bcl-2 (Fig. 1e, 1k) or anti-IP3R-1 (Fig. 1k) antibody cross-linked to Protein A/G Plus agarose, overnight at 4 °C; western blot

binding: binds
Substance: Bcl-2 (endogenous) (from UniProt P10415 1-239)
